For 6 molecules, binding results are on record in patent publication US20190309300A1 (TECHNION RESEARCH AND DEVELOPMENT FOUNDATION, published 2019).

Sequences of proteins named here, by UniProt entry; tags and fusion partners are left off. A change or cut given only in a name is not applied to a line headed by its entry.
UniProt P56524: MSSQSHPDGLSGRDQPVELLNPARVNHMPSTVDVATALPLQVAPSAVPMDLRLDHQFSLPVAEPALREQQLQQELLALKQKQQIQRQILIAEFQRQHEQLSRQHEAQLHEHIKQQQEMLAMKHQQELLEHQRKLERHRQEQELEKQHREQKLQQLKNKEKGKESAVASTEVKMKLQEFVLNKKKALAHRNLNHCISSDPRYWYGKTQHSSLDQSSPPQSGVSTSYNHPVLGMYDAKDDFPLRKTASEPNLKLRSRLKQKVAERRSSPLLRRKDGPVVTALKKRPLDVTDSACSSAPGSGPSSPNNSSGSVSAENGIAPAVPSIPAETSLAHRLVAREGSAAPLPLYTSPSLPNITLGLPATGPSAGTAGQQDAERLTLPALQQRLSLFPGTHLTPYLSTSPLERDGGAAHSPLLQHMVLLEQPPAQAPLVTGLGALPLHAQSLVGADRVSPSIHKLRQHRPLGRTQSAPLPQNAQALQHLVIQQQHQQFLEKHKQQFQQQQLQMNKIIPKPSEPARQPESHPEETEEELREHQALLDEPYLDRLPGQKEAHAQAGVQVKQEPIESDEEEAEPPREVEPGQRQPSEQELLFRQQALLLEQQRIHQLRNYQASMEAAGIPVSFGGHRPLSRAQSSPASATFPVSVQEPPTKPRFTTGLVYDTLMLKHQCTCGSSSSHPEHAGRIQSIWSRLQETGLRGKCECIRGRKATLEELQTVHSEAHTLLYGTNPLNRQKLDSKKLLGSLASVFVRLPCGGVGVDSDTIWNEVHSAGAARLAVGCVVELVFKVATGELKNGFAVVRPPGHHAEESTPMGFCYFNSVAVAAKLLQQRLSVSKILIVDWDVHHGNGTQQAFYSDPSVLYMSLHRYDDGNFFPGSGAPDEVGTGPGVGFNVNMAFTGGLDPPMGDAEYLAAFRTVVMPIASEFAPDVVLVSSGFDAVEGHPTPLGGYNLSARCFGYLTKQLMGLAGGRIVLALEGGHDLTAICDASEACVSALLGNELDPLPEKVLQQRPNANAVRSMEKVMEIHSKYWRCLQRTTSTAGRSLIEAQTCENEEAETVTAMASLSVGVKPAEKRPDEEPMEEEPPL

For assay [1], the target named is 3HA tagged full length ENIGMA (Pdlim7) (mouse) (UniProt Q3TJD7). Put plainly: co-immunoprecipitation, IP anti-HA, blot anti-His (FIG. 7D).
Assay [2] has the same target. Put plainly: co-immunoprecipitation, IP anti-HA, blot anti-His (FIGS. 7D and 7E).
The target of assay [3] is T1, flag tagged full length HDAC4 (human, UniProt P56524 1-1084).
T1 construct: Full length, expressed in transfected cells and immunoprecipitated from lysate; also called Flag-HDAC4; pcDNA HDAC4-flag; not shown: Flag tag
Nature of the assay: co-immunoprecipitation, IP anti-Flag, blot anti-HA (FIG. 7B). As for the experimental part:
Cultured cells were washed with ice-cold phosphate-buffered saline (PBS) buffer and lysed in buffer containing 50 mM Tris, pH 7.5, 150 mM NaCl, 1 mM EDTA, and 1% NP-40. 400 μg of protein was immunoprecipitated with anti-Flag (Sigma-Aldrich), or IgG antibodies (negative control) and protein A/G agarose beads (Santa Cruz Biotechnology, Inc.) as described previously [Kehat I, et al., Modulation of chromatin position and gene expression by HDAC4 interaction with nucleoporins. J Cell Biol 2011, 193, 21-29]. Beads were washed three times with buffer and suspended in 30 μl of Laemmli buffer. Proteins were separated on an SDS gel, blotted, and detected with primary antibody recognizing HA (Santa Cruz Biotechnology, Inc. sc-805) or flag (Sigma-Aldrich).

Assay [4] addresses T1, flag tagged full length HDAC4. Nature of the assay: summary of Example 6 (RRS, co-immunoprecipitation, co-localization).
For assay [5] the target is unchanged. Put plainly: co-immunoprecipitation, IP anti-Flag, blot anti-HA (FIG. 7C).
For assay [6] the target is unchanged. Nature of the assay: summing-up sentence of the RRS and co-immunoprecipitation mapping.

These are yes or no findings as the source states them, for the method shown. Binding seen in cells or lysates may run through a third protein. Some binding calls cover weakened binding; strength is not graded here. For some of these results: Tags and fused reporters may be left off the sequences shown.

With “6xHis tagged whole N-terminal fragment of HDAC4 (aa 3-628) (from UniProt P56524 3-628)”, the binding entry in assay [1] and in assay [2] was “binds” throughout.
For “3HA tagged full length ENIGMA (Pdlim7) (from UniProt Q3TJD7 1-457)”, the binding entry in assay [3] and in assay [4] was “binds” throughout.
On to “6xHis tagged HDAC4 fragment of amino acids 3-222 (from UniProt P56524 3-222)”, for which the binding result in assay [2] is “binds”.

B1: 3HA tagged ENIGMA construct containing LIM domains 1+2 (protein, mouse, UniProt Q3TJD7 280-398, looked up, not shown: small tags and cut ends)
chain: PVCHQCHKIIRGRYLVALGHAYHPEEFVCSQCGKVLEEGGFFEEKGAIFCPSCYDVRYAPNCAKCKKKITGEIMHALKMTWHVHCFTCAACKTPIRNRAFYMEEGAPYCERDYEKMFGT
For the molecule B1, the binding result in assay [5] is “binds”.

B2: 3HA tagged ENIGMA construct containing LIM domains 2+3 (protein, mouse, UniProt Q3TJD7 339-457, looked up, not shown: small tags and cut ends)
chain: PNCAKCKKKITGEIMHALKMTWHVHCFTCAACKTPIRNRAFYMEEGAPYCERDYEKMFGTKCRGCDFKIDAGDRFLEALGFSWHDTCFVCAICQINLEGKTFYSKKDKPLCKSHAFSHV
As for B2, in assay [5], the binding result is given as “binds”.

B3: 3HA tagged ENIGMA fragment containing only the three LIM domains (protein, mouse, UniProt Q3TJD7 280-457, looked up, not shown: small tags and cut ends)
chain: PVCHQCHKIIRGRYLVALGHAYHPEEFVCSQCGKVLEEGGFFEEKGAIFCPSCYDVRYAPNCAKCKKKITGEIMHALKMTWHVHCFTCAACKTPIRNRAFYMEEGAPYCERDYEKMFGTKCRGCDFKIDAGDRFLEALGFSWHDTCFVCAICQINLEGKTFYSKKDKPLCKSHAFSHV
In the case of B3, the binding result in assay [5], in assay [6] and in assay [3] was “binds” each time.
